The values below come from doi:10.1101/2023.01.13.523954.

These are yes or no findings as the source states them, for the method shown. In cells and extracts the contact can be indirect. A result given as binding can be weak or reduced; the word gives no strength.

This test has as its target T1, rpmC (P. aeruginosa (endogenous in strain PAO1)) (UniProt Q9HWE3).
T1 sequence: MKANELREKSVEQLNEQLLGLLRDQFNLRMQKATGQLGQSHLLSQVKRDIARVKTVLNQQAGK
The experiment in a line: cross-linking.
Regarding PHIKZ108 (Pseudomonas phage ϕKZ), the binding result is given as “binds”. Then PHIKZ175 (Pseudomonas phage ϕKZ), with “binds”; and PHIKZ285 (Pseudomonas phage ϕKZ), with “binds”.
